Primary screen of a compound library

Sequences of proteins named here, by UniProt entry; tags and fusion partners are left off. Residues count along the entry.
UniProt I6X8D2, whole entry: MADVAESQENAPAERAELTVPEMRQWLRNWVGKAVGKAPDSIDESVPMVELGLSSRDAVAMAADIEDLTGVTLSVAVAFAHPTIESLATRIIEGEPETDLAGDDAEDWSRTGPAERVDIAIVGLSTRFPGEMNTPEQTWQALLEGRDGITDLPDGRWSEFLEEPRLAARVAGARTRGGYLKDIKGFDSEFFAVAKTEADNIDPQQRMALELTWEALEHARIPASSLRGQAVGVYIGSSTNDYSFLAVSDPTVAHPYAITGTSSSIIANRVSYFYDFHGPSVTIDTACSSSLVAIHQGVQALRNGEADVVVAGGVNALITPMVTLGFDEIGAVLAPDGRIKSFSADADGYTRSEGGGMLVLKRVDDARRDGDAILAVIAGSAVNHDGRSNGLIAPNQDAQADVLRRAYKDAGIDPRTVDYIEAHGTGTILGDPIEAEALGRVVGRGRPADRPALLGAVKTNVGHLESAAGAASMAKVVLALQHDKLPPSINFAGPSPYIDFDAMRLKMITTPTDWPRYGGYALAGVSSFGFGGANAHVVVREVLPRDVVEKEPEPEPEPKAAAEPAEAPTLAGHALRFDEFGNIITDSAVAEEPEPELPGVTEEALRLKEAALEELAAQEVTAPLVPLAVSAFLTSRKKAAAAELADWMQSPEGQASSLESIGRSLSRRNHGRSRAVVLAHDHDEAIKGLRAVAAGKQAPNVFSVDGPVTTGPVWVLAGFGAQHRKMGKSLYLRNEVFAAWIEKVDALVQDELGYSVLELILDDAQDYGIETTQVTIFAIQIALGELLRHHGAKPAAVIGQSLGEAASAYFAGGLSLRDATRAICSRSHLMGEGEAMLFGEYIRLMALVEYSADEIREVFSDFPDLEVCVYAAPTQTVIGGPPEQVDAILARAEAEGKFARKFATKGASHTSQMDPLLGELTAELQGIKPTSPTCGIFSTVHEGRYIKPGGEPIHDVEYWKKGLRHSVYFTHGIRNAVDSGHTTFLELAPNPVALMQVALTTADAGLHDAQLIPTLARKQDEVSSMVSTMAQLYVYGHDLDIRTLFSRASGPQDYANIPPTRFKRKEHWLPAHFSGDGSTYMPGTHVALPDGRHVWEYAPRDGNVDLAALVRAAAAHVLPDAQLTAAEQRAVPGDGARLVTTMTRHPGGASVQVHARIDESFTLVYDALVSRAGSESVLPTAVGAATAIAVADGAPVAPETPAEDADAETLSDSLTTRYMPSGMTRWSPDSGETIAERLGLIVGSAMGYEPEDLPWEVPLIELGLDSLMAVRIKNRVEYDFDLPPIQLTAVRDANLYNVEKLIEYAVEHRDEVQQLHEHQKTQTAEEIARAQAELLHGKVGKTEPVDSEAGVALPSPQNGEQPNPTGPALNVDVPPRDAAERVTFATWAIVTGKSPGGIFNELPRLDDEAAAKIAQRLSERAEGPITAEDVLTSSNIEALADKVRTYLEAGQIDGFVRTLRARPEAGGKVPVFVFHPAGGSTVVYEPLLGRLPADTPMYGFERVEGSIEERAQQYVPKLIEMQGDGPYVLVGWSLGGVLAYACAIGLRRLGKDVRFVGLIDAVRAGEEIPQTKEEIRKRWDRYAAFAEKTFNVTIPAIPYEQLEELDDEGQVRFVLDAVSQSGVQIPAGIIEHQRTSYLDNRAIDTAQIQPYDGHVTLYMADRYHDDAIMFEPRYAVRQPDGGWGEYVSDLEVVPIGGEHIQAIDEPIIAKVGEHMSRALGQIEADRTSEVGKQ
UniProt P9WFT3, whole entry: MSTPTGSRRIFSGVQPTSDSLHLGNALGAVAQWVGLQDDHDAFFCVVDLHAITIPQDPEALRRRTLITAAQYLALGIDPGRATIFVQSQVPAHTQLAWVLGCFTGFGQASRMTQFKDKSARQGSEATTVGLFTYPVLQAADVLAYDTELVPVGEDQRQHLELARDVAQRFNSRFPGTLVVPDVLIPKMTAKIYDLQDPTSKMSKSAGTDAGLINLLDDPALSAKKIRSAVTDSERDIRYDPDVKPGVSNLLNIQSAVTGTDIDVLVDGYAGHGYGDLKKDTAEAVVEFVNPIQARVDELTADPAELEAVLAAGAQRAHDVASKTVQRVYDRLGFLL
UniProt P9WNZ1, whole entry: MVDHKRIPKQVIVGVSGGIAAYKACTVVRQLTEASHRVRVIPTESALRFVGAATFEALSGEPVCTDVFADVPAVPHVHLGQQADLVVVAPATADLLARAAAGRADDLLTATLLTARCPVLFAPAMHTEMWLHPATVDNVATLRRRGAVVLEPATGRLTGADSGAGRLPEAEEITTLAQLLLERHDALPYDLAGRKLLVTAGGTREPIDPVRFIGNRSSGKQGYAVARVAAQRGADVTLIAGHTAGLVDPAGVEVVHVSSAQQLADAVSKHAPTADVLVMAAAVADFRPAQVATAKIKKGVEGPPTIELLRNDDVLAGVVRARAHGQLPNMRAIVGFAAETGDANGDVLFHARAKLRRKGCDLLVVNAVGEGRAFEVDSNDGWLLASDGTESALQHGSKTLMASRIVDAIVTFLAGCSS
UniProt Q8IDJ8, 1-583: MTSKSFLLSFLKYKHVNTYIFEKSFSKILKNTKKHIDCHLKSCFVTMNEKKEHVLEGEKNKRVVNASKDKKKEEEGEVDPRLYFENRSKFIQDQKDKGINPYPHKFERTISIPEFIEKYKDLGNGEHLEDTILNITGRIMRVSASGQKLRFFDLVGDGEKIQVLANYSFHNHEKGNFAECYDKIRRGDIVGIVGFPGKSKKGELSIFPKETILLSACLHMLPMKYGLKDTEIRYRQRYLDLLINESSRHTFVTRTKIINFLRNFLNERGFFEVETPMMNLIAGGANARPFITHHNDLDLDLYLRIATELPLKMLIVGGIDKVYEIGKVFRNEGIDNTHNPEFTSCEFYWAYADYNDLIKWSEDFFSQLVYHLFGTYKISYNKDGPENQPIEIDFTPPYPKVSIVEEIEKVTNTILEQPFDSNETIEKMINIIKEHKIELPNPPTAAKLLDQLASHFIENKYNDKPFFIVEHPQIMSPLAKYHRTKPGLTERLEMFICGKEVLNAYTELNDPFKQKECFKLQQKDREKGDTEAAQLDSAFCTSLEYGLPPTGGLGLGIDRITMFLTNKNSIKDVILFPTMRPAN

Source: ChEMBL document CHEMBL3988442, “University of Dundee, Small-Polar-MMV Screening Library” (2021).

Pks13 thioesterase: 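Enzyme assay of the thioesterase domain of polyketide synthase 13; the read-out is not stated. Target: Polyketide synthase Pks13, Mycobacterium tuberculosis (UniProt I6X8D2). Tested at 30 µM. Higher reads as stronger inhibition (inferred from which compounds were picked for retests). About 67,000 compounds were tested under these conditions; 0.46% (about 300) showed 50% or more at least once.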
MtTrpRS: 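Tryptophan-tRNA ligase, Mycobacterium tuberculosis (UniProt P9WFT3). Enzyme assay of tryptophanyl-tRNA synthetase; the read-out is not stated. Concentration: 10 µM. Higher most likely means stronger inhibition; the record gives no direction and few retests gave an IC50. Size under these conditions: about 65,000 compounds, about 64 of them at 50% or above in at least one test.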
CoaBC: 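Enzyme assay of CoaBC with a phosphate dye (Biomol Green) read at 650 nm. Target: Coenzyme A biosynthesis protein CoaBC, Mycobacterium tuberculosis (UniProt P9WNZ1). Compounds at 30 µM. Higher reads as stronger inhibition, judged from the few compounds that gave an IC50. Most strong results did not repeat in a second test. Of about 67,000 compounds tested this way, about 40 (0.06%) reached 50% or more in at least one test.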
PfKRS1: 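Lysine-tRNA ligase, Plasmodium falciparum 3D7 (UniProt Q8IDJ8). Enzyme assay of the cytosolic lysyl-tRNA synthetase in 384-well plates, read by luminescence. Compounds at 30 µM. Higher reads as stronger inhibition, judged from the few compounds that gave an IC50. Size under these conditions: about 69,000 compounds, about 49 of them at 50% or above in at least one test.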

The filed quantity is “Percent Effect” (%). How 0% and 100% were set is not recorded. Most values in the screen are low, and negative values occur. The compounds are a random part of those screened. Two or more numbers in one place are separate tests of the same structure; such repeats can differ widely.

With CSCCCN1CCC[C@]2(C(=O)O)CN(c3cnccn3)CC[C@@H]12 the screen gave Pks13 thioesterase: 4.991%; MtTrpRS: -2.344%; CoaBC: 1.799%; PfKRS1: 1.268%. CC(=O)N1CCC1c1cc(NC2CCOCC2)nc(C)n1 (stereo not drawn) gave Pks13 thioesterase: -14.58%; MtTrpRS: -2.865%; CoaBC: 0.9569%; PfKRS1: -0.3559%. Result for Cc1nn(C)c(C)c1OCC(=O)N1CCCC1 was Pks13 thioesterase: -9.183%; MtTrpRS: -1.135%; PfKRS1: 0.4459%. For O=C1C[C@H]2[C@@H](CCN2C(=O)Cc2cccs2)N1Cc1ccncc1 the result was Pks13 thioesterase: 11.86%; MtTrpRS: 15.26%; CoaBC: 8.108%; PfKRS1: 3.495%.

Result for O=C(c1cccs1)N1CCC2(CC1)CN(c1ccsc1)C(=O)CO2 was Pks13 thioesterase: -11.98%; MtTrpRS: 4.848%; CoaBC: 3%; PfKRS1: 1.276%. CCCNC(=O)NC(C)c1ccccn1 (stereo not drawn) read Pks13 thioesterase: -0.5704%; MtTrpRS: 4.45%; CoaBC: 31.25% and 10.82%; PfKRS1: 2.267%. With CCc1ccccc1CNC(=O)NCc1cnn(C)c1 the screen gave Pks13 thioesterase: -23.77%; MtTrpRS: -7.863%; CoaBC: -0.4603%; PfKRS1: 1.208%. Result for Cn1ccnc1CN(Cc1cccnc1)CC1CCCO1 (stereo not drawn) was Pks13 thioesterase: 13.89%; MtTrpRS: -9.109%; CoaBC: 2.152%; PfKRS1: -0.5531%.

With CS(=O)(=O)N1CCc2sc(C(=O)NCCc3ccccn3)cc21 the screen gave Pks13 thioesterase: -16.61%; MtTrpRS: -5.231%; CoaBC: 2.096%; PfKRS1: -0.4718%. Cc1cnn(CC(=O)NC2CCCc3cc(OC(F)F)ccc32)c1 (stereo not drawn) read MtTrpRS: -6.003%; CoaBC: -3.782%; PfKRS1: 1.557%. With Cc1ccc(OCCN(C)C(=O)CCCC(N)=O)c(C)c1 the screen gave Pks13 thioesterase: -5.226%; MtTrpRS: 3.543%; CoaBC: 1.948%; PfKRS1: -0.9629%. Result for CCC(C)(NCc1nc(C)c(C)o1)c1nccs1 (stereo not drawn) was Pks13 thioesterase: -6.63%; MtTrpRS: 7.704%; CoaBC: -5.782%; PfKRS1: -3.398%.

With O=C1NC2(CCN(C(=O)Cc3ccsc3)CC2)CC1c1ccccc1 (stereo not drawn) the screen gave Pks13 thioesterase: -23.24%; MtTrpRS: -3.745%; CoaBC: -6.947%; PfKRS1: 0.2499%. Cc1cccc(CN2C[C@@H]3OCCN(S(=O)(=O)N(C)C)[C@@H]3C2)c1 gave Pks13 thioesterase: -38.46%; MtTrpRS: -2.185%; CoaBC: -8.245%; PfKRS1: 2.133%. Cc1cnn(CCCNC(=O)C2CCCCN2Cc2ccncc2)c1 (stereo not drawn) gave Pks13 thioesterase: -12.56%; MtTrpRS: -0.3096%; PfKRS1: -3.724%. Result for COCCc1ncc(CN2C[C@H](C3CC3)[C@@H](N)C2)cn1 was Pks13 thioesterase: -20.21%; MtTrpRS: -5.301%; CoaBC: -37.5%; PfKRS1: 2.9%.

CC[C@H](C)Nc1nccc(-c2cnc3sccn3c2=O)n1 read Pks13 thioesterase: 26.76%; CoaBC: 0.6024%; PfKRS1: 4.097%. Result for CCc1cc(N2CCC(Nc3ccc(Cl)cn3)CC2)ncn1 was Pks13 thioesterase: -22.17%; MtTrpRS: -0.361%; CoaBC: 5.533%; PfKRS1: 5.217%. CC(=O)Nc1nc(C(=O)N2CCCC2Cn2cc(C)cn2)cs1 (stereo not drawn) gave Pks13 thioesterase: -5.683%; MtTrpRS: 1.642%; CoaBC: -4.359%; PfKRS1: 2.104%. With O=C(N[C@@H]1CN(Cc2cccs2)[C@@H]2CCCO[C@@H]21)C1CC1 the screen gave Pks13 thioesterase: -2.628%; MtTrpRS: 4.092%; CoaBC: 1.65%; PfKRS1: 0.7356%.

For COc1cc(NC(=O)CCn2nc(-c3cccs3)oc2=O)cc(OC)c1 the result was Pks13 thioesterase: -4.033%; MtTrpRS: -9.024%; CoaBC: 7.024%; PfKRS1: 1.128%. Result for COCCCNC(=O)CCn1nc(C)c2ccccc21 was Pks13 thioesterase: -6.46%; MtTrpRS: -2.211%; CoaBC: 8.21%; PfKRS1: 4.886%. COc1cccc(N2CCN(C(=O)c3noc4c3CCCCC4)CC2)c1 read Pks13 thioesterase: -5.838%; MtTrpRS: -0.8862%; CoaBC: 1.772%; PfKRS1: 5.316%. CC(C1CCN(C(=O)c2coc(CN3CCOCC3)c2)CC1)N(C)C (stereo not drawn) read Pks13 thioesterase: 6.098%; MtTrpRS: -1.502%; CoaBC: -0.1233%; PfKRS1: 1.735%.

COc1ccc(-n2nc(C3CC3)nc2CCn2cnnn2)cc1 gave Pks13 thioesterase: -10.1%; MtTrpRS: 12.9%; CoaBC: 9.756%; PfKRS1: -2.531%. For FC(F)(F)c1cc(C2CCCN(c3ncccn3)C2)n2ccnc2n1 (stereo not drawn) the result was Pks13 thioesterase: 9.086%; MtTrpRS: -8.548%; CoaBC: 4.338%; PfKRS1: 0.7362%. Cc1cc(C)c(S(=O)(=O)NCCC(=O)NCc2ccoc2)c(C)c1 read Pks13 thioesterase: -5.862%; MtTrpRS: 6.3%; CoaBC: 0.8264%; PfKRS1: 12.33%. Result for COC[C@]1(O)CCN(Cc2cnc(N(C)C)nc2)CC1(C)C was Pks13 thioesterase: -7.845%; MtTrpRS: 1.088%; CoaBC: 5.19%; PfKRS1: -0.6472%.

Some entries from above, unchanged:

structure,Pks13 thioesterase,MtTrpRS,CoaBC,PfKRS1
Cc1ccc(OCCN(C)C(=O)CCCC(N)=O)c(C)c1,-5.226%,3.543%,1.948%,-0.9629%
CC(=O)Nc1nc(C(=O)N2CCCC2Cn2cc(C)cn2)cs1 (stereo not drawn),-5.683%,1.642%,-4.359%,2.104%